Measured values reported in US20140248666A1.
Results are given in words; binding and its absence hold for the method and conditions named. Some binding calls cover weakened binding; strength is not graded here.

Experiments:
[1] = target: T1, rat sclerostin peptide … (SEQ ID NO:96) (rat); assay: peptide binding ELISA, peptide coupled to sulfhydryl binding plate, antibody at 1 ug/ml
T1 sequence (peptide): PNAIGRVKWWRPNGPDFRC

[2] = target: T2, rat sclerostin peptide … (SEQ ID NO:97) (rat); assay: as above
T2 sequence (peptide): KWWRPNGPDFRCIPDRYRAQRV

binding [1]: binds
binding [2]: binds
B1: Antibody 19 (antibody, V domains shown)
VH: EVQLQQSGPELVKPGASVKMSCKASGFTFTDYIMHWVKQKPGQGLEWIGYINPYNDDTEYNEKFKGKATLTSDKSSSTAYMDLSSLTSEGSAVYYCARSIYYYDAPFAYWGQGTLVTVSS
VL: DIQMTQTTSSLSASLGDRVNISCRASQDISSYLNWYQQKPDGTVKLLIYSTSRLNSGVPSRFSGSGSGTDYSLTISNLAQEDIATYFCQQDIKHPTFGGGTKLELKR
